No constants are given. Whether binding was seen depends on the method and setting. Binding seen in cells or lysates may run through a third protein. Some results given as binding are weak or reduced against the parent protein; the word gives no strength. Sequences can lack the tags named with a protein.
How the values were obtained:
FLAG-tagged Nek2A = biological target: T1, FLAG-tagged Nek2A (UniProt P51955); assay: co-IP; U2OS cells with ectopically expressed FLAG-tagged Nek2A; cells crosslinked with 0.1% paraformaldehyde for 7 min, lysed in IP buffer; anti-FLAG or anti-KIF2C antibody or IgG control, protein G magnetic beads, 4 °C; Western blot
T1 sequence: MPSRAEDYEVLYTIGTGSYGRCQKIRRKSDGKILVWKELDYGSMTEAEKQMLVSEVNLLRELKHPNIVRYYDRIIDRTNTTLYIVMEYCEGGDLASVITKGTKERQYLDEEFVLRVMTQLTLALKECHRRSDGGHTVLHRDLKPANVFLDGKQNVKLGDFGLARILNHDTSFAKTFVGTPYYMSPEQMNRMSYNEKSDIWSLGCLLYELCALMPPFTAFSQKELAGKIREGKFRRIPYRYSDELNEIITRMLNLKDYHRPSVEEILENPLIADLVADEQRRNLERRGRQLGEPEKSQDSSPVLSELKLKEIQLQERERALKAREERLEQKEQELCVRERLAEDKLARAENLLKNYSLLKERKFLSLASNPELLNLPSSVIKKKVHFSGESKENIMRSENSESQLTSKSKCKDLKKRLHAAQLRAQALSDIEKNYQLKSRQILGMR

[1] = biological target: T2, KIF2C (human (endogenous in U2OS)) (UniProt Q99661); assay: as above
T2 sequence: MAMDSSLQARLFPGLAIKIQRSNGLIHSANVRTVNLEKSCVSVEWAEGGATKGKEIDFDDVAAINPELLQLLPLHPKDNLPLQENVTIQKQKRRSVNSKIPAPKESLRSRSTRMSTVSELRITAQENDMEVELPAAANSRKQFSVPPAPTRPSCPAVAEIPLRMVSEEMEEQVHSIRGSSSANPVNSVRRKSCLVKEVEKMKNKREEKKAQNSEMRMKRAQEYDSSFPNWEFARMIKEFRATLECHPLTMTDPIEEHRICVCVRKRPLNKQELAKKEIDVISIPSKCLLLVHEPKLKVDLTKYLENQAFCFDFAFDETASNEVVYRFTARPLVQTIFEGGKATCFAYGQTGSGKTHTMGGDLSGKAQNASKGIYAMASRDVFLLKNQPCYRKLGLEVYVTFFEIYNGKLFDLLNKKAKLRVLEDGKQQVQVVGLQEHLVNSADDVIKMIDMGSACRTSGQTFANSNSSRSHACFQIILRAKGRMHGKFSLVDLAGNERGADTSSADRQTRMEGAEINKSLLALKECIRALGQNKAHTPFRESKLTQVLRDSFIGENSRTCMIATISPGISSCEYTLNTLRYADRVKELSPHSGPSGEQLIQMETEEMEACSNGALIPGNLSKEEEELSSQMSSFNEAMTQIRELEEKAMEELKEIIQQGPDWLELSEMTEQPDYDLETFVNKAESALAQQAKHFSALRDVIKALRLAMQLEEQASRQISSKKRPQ

Binder | binding (FLAG-tagged Nek2A) | binding [1]
KIF2C (protein, UniProt Q99661 1-725) MAMDSSLQARLFPGLAIKIQRSNGLIHSANVRTVNLEKSCVSVEWAEGGATKGKEIDFDDVAAINPELLQLLPLHPKDNLPLQENVTIQKQKRRSVNSKIPAPKESLRSRSTRMSTVSELRITAQENDMEVELPAAANSRKQFSVPPAPTRPSCPAVAEIPLRMVSEEMEEQVHSIRGSSSANPVNSVRRKSCLVKEVEKMKNKREEKKAQNSEMRMKRAQEYDSSFPNWEFARMIKEFRATLECHPLTMTDPIEEHRICVCVRKRPLNKQELAKKEIDVISIPSKCLLLVHEPKLKVDLTKYLENQAFCFDFAFDETASNEVVYRFTARPLVQTIFEGGKATCFAYGQTGSGKTHTMGGDLSGKAQNASKGIYAMASRDVFLLKNQPCYRKLGLEVYVTFFEIYNGKLFDLLNKKAKLRVLEDGKQQVQVVGLQEHLVNSADDVIKMIDMGSACRTSGQTFANSNSSRSHACFQIILRAKGRMHGKFSLVDLAGNERGADTSSADRQTRMEGAEINKSLLALKECIRALGQNKAHTPFRESKLTQVLRDSFIGENSRTCMIATISPGISSCEYTLNTLRYADRVKELSPHSGPSGEQLIQMETEEMEACSNGALIPGNLSKEEEELSSQMSSFNEAMTQIRELEEKAMEELKEIIQQGPDWLELSEMTEQPDYDLETFVNKAESALAQQAKHFSALRDVIKALRLAMQLEEQASRQISSKKRPQ | binds | –
FLAG-tagged Nek2A (enzyme, UniProt P51955 1-445) MPSRAEDYEVLYTIGTGSYGRCQKIRRKSDGKILVWKELDYGSMTEAEKQMLVSEVNLLRELKHPNIVRYYDRIIDRTNTTLYIVMEYCEGGDLASVITKGTKERQYLDEEFVLRVMTQLTLALKECHRRSDGGHTVLHRDLKPANVFLDGKQNVKLGDFGLARILNHDTSFAKTFVGTPYYMSPEQMNRMSYNEKSDIWSLGCLLYELCALMPPFTAFSQKELAGKIREGKFRRIPYRYSDELNEIITRMLNLKDYHRPSVEEILENPLIADLVADEQRRNLERRGRQLGEPEKSQDSSPVLSELKLKEIQLQERERALKAREERLEQKEQELCVRERLAEDKLARAENLLKNYSLLKERKFLSLASNPELLNLPSSVIKKKVHFSGESKENIMRSENSESQLTSKSKCKDLKKRLHAAQLRAQALSDIEKNYQLKSRQILGMR | – | binds
